In the M2OR odorant receptor database:
Only a part is listed here, and it is no random draw. Calls are pooled over several reports, among them a noisy single-well screen. Some of the results follow.

How the values were obtained:
Conditions in all cases: stereoisomer not certain
OR6S1 = test system: T1, OR6S1
T1 sequence (whole entry): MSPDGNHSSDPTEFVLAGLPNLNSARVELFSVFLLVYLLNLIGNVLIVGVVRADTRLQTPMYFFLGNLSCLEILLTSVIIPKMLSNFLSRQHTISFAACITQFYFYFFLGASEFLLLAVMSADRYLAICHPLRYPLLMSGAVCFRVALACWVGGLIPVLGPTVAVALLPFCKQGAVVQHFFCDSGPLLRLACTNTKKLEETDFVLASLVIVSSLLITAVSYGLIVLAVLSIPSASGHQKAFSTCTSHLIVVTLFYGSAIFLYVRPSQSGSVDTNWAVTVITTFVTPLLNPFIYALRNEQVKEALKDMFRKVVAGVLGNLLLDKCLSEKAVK
How it was run: (§1)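 Each entry records the cell line, G-protein, co-transfected protein and tags used. Methods varied with the source, often transient luciferase assays in mammalian cell lines. A receptor–molecule pair is called responsive (active) if the original authors judged its signal statistically different from baseline and non-responsive (inactive) otherwise.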

OR6T1 = test system: T2, OR6T1
T2 sequence (whole entry): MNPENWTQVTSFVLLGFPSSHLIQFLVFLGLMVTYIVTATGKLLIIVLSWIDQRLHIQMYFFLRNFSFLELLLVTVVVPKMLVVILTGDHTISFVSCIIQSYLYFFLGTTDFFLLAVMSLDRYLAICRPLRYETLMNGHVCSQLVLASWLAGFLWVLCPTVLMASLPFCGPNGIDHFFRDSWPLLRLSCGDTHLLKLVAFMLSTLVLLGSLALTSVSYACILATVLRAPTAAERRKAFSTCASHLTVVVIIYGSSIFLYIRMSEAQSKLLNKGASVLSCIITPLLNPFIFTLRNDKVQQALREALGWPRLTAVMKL
How it was run: as §1

OR6V1 (Homo sapiens) = molecular target: T3, OR6V1 (Homo sapiens) (UniProt Q8N148)
T3 sequence (whole entry): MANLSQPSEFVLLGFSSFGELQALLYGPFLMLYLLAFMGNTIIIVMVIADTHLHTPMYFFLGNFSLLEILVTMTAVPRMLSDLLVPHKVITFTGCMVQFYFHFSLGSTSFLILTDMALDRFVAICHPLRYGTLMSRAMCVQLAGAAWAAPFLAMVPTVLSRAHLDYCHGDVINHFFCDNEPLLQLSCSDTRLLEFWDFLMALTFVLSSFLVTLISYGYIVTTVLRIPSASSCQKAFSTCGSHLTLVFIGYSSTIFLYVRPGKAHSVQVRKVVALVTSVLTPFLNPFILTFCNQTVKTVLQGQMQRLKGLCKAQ
How it was run: as §1

OR6X1 (Homo sapiens) = molecular target: T4, OR6X1 (Homo sapiens) (UniProt Q8NH79)
T4 sequence (whole entry): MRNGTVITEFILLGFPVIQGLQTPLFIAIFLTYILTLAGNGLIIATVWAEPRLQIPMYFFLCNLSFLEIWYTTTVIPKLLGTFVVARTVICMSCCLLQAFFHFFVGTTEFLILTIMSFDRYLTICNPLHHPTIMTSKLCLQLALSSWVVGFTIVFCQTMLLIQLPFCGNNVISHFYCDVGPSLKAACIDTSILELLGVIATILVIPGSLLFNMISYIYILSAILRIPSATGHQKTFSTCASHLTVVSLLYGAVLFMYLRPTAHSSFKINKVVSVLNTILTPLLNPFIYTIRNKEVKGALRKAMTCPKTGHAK
How it was run: as §1

OR6Y1 = test system: T5, OR6Y1
T5 sequence (whole entry): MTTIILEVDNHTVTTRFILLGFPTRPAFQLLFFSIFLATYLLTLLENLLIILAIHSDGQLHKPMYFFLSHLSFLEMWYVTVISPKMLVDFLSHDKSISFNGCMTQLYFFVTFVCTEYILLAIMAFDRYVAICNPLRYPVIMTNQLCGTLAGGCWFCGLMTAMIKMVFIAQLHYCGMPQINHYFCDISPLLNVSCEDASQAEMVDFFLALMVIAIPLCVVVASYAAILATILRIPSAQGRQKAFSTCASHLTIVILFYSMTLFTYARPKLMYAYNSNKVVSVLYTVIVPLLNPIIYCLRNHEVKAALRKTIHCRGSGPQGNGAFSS
How it was run: as §1

OR7A10 (Homo sapiens) = molecular target: T6, OR7A10 (Homo sapiens) (UniProt O76100)
T6 sequence (whole entry): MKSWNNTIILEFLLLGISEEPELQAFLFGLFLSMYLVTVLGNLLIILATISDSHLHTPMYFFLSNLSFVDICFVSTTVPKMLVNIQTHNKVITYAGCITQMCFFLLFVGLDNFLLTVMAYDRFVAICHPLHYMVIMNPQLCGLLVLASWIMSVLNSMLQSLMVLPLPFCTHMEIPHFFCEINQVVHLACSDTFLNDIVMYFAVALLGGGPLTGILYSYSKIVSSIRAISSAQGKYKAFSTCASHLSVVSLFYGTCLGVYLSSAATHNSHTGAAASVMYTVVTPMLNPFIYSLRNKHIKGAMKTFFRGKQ
How it was run: as §1

OR7A17 (Homo sapiens) = molecular target: T7, OR7A17 (Homo sapiens) (UniProt O14581)
T7 sequence (whole entry): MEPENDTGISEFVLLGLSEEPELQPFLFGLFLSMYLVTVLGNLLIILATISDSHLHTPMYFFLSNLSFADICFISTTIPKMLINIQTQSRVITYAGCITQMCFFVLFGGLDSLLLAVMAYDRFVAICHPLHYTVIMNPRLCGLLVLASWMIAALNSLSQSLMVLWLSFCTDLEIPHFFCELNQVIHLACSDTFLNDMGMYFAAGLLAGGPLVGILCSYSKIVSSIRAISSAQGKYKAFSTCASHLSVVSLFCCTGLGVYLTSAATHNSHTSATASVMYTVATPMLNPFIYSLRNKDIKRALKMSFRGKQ
How it was run: as §1

OR7A5 (Homo sapiens) = molecular target: T8, OR7A5 (Homo sapiens) (UniProt Q15622)
T8 sequence (whole entry): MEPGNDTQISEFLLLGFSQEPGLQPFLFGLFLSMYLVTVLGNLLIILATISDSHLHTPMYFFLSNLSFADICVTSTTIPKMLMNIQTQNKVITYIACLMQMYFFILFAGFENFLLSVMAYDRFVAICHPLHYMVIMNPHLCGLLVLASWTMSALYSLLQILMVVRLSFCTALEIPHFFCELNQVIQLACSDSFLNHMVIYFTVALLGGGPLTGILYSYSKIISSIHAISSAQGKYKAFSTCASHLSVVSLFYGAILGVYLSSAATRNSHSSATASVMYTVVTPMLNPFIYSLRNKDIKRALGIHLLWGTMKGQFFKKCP
How it was run: as §1

OR7C1 = test system: T9, OR7C1
T9 sequence (whole entry): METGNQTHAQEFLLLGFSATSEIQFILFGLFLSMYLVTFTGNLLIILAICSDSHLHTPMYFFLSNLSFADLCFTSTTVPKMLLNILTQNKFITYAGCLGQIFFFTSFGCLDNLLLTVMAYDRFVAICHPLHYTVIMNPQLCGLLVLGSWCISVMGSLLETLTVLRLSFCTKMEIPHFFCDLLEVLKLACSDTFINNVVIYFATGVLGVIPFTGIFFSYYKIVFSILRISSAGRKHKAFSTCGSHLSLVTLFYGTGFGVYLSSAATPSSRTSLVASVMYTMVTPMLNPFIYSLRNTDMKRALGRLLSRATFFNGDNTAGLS
How it was run: as §1

OR7C2 = test system: T10, OR7C2
T10 sequence (whole entry): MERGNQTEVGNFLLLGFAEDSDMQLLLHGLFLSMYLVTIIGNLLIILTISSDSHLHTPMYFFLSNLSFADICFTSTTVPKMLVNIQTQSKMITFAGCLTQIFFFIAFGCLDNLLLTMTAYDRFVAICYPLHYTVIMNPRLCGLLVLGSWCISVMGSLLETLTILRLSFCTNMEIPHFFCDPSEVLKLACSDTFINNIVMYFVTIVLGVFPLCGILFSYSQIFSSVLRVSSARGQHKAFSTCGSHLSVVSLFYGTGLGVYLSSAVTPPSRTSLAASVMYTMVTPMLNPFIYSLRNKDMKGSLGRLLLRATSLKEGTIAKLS
How it was run: as §1

Compound | odorant receptor agonist call (OR6S1) | odorant receptor agonist call (OR6T1) | odorant receptor agonist call (OR6V1 (Homo sapiens)) | odorant receptor agonist call (OR6X1 (Homo sapiens)) | odorant receptor agonist call (OR6Y1) | odorant receptor agonist call (OR7A10 (Homo sapiens)) | odorant receptor agonist call (OR7A17 (Homo sapiens)) | odorant receptor agonist call (OR7A5 (Homo sapiens)) | odorant receptor agonist call (OR7C1) | odorant receptor agonist call (OR7C2)
CCCCOC(C)=O | inactive | inactive | inactive | inactive | inactive | inactive | inactive | inactive | inactive | inactive
CCC(C)=O | inactive | inactive | inactive | inactive | inactive | inactive | inactive | inactive | inactive | inactive
CS | inactive | inactive | inactive | inactive | inactive | inactive | inactive | inactive | active | inactive
